According to US4238390A, “Synthesis and biological activity of [D-Thr^2, Δ^3 Pro^5 ]-enkephalinamide” (Hoffmann-La Roche Inc., priority 1979, dated 1980):
Where two headings read alike, the source gives them in different places.

Tested on: 5-HTP Diarrhea
Test: Anti-diarrhea activity against 5-HTP diarrhea in CD-1 mice (comparative tests)
Format: in vivo, Male CD-1 mice
Details: for Anti-Diarrhea ED50 ± S.E.: Sulfate
Experimental: The anti-diarrhea ED50 values were determined using a computer program "ED50" based on the probit method of D. J. Finney, "Probit Analysis", Cambridge University Press, Cambridge, Great Britain (1971). The average percent inhibition obtained at each dose level of [D-Thr^2, Δ^3 Pro^5 ]-enkephalinamide was used as the response.
Male CD-1 mice were obtained from Charles River, Inc., Wilmington, Massachusetts, and weighted between 18 and 25 grams at the time of use.
All compounds with the exception of 5-HTP were dissolved in sterile 0.9% sodium chloride solution. Distilled water was used as the vehicle for 5-HTP. All compounds were administered to the mice using a constant dosage volume of 0.2 ml/20 gms of body weight.
In the experiment involving naloxone HCl, it or the vehicle were given 5 minutes prior to the administration of β-endorphin.
The amount of diarrhea produced by 5-HTP was determined as follows. Immediately following the administration of 5-HTP, the mice were individually housed in open-bottomed wire cages of a width and length of 8.5 cm and a height of 7.5 cm, resting on preweighed plastic sheets. The mice were removed from the cages 30 minutes after receiving 5-HTP, and any visible urinary discharge present on the plastic sheet was blotted dry. The sheets were then reweighed. The weight increment was considered to represent fecal weight.

CN1CC[C@]23c4c5ccc(O)c4O[C@H]2[C@@H](O)C=C[C@H]3[C@H]1C5.O=S(=O)(O)O [Morphine Sulfate]
inhibition at 0.07 µmol/kg (Mus musculus, 0.07 μmoles/kg iv, read-out: % Inhibition of 5-HTP Diarrhea ± S.E.): 9.4 ± 10% | inhibition at 0.07 µmol/kg (Mus musculus, 0.07 μmoles/kg sc, read-out: % Inhibition of 5-HTP Diarrhea ± S.E.): 0% | inhibition at 0.22 µmol/kg (Mus musculus, 0.22 μmoles/kg sc, read-out: % Inhibition of 5-HTP Diarrhea ± S.E.): 0% | Anti-Diarrhea ED50 ± S.E. (iv, 30 seconds prior to 10 mg/kg 5-HTP ip): 0.46 ± 0.150 µmol/kg | Anti-Diarrhea ED50 ± S.E. (iv, 30 seconds prior to 10 mg/kg 5-HTP ip, listed as morphine sulfate): 0.46 µmol/kg | Anti-Diarrhea ED50 ± S.E. (sc, 1 minute prior to 10 mg/kg 5-HTP ip): 1.45 ± 0.330 µmol/kg | Anti-Diarrhea ED50 ± S.E. (sc, 1 minute prior to 10 mg/kg 5-HTP ip, listed as morphine sulfate): 1.45 µmol/kg
